Reference: publication PMC12866778
No constants are given. Whether binding was seen depends on the method and setting. Binding seen in cells or lysates may run through a third protein. Here binding means that the protein was enriched with, or labelled near, the bait; the list need not be complete.

Sequences of proteins named here, by UniProt entry; tags and fusion partners are left off.
UniProt Q9Z127: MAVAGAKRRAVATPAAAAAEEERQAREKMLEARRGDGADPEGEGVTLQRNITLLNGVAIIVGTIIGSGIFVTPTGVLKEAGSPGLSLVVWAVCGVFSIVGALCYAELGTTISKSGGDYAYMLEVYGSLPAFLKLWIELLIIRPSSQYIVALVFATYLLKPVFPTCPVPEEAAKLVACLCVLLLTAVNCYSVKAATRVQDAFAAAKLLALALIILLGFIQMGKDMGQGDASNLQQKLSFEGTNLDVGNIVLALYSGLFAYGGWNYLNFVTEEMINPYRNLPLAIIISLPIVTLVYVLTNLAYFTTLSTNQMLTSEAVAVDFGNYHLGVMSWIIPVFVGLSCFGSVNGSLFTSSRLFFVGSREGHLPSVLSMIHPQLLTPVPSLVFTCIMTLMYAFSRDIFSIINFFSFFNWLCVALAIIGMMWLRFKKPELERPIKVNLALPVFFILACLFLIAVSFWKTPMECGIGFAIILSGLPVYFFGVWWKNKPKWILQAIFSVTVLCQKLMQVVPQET

Biological target: SLC7A5-FLAG (solute carrier family seven member 5/L-type amino acid transporter 1, FLAG-tagged) (UniProt Q9Z127)
Assay: affinity purification with mass spectrometry; label-free proteomics of anti-FLAG immunoprecipitates from SLC7A5-FLAG-transfected RAW264.7 cells, anti-FLAG versus anti-IgG, n = 3/group

B1: endogenous PGAM5 (phosphoglycerate mutase 5) of RAW264.7 cells (protein, UniProt Q8BX10 1-288)
chain: MAFRQALQLAACGLAGGSAAVLFSAVAVGKPRGGGDADTRATEPPAWTGARAGRGVWDTNWDRREPLSLINLKKRNVESGEDELTSRLDHYKAKATRHIFLIRHSQYHVDGSLEKDRTLTPLGREQAELTGLRLASLGLKFNKIVHSSMTRAVETTDIISKHLPGVSRVSTDLLREGAPIEPDPPVSHWKPEAVQYYEDGARIEAAFRNYIHRADARQEEDSYEIFICHANVIRYIVCRALQFPPEGWLRLSLNNGSITHLVIRPNGRVALRTLGDTGFMPPDKITRS
For B1, the binding was “binds”.
